The other results are listed elsewhere or left out. These are further read-outs of the screen, such as a control signal, another cell line or another target. No call is given for them. Most of these compounds were active or inconclusive in the main read-out, so they are no random draw. The note in brackets gives the kind of curve behind each potency; many fits are weak.
Assay: qHTS Assay to Find Inhibitors of Chronic Active B-Cell Receptor Signaling
Details: ABC-DLBCL IkBa-CBG/CBR reporter, luminescence ratio (green luciferase fused to IkBa over red control in TMD8 lymphoma cells), 4 h
How it was run: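 TMD8 human ABC-DLBCL cells with doxycycline-inducible IκBα–green luciferase fusion and unfused red luciferase, in 0.5% FBS medium; compounds up to 46 uM, 4 h at 37C. Green/red luminescence ratio, filter-overlap corrected, fitted to concentration-response curves.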

[1] = measured here: CBR red luminescence, cell number
[2] = measured here: IkBa-CBG green luminescence

Compound: c1ccc(-c2nnc(OCc3cccnc3)c3ccccc23)cc1
- AC50 [1]: 35.5 µM [rising, single point]

Compound: S=C(Nc1ccc2nccnc2c1)N1CCOCC1
- AC50 [1]: 35.5 µM [falling, single point]

Compound: Cc1ccc(NC(=O)c2ccccc2[N+](=O)[O-])nc1
- AC50 [1]: 20.6 µM [falling, partial curve, poor fit]

Compound: Oc1ccc(-c2nc3ccccc3s2)c(O)c1
- AC50 [1]: 0.1 µM [rising, full curve, poor fit]

Compound: O=C(c1cc(-c2ccccc2O)on1)N1CCc2ccccc2C1
- AC50 [1]: 10 µM [falling, single point]

Compound: Cc1cccc(C)c1OCC(=O)NCc1nnc(SCC(=O)NC2CCCCC2)n1C
- AC50 [1]: 6.51 µM [rising, single point]
- AC50 [2]: 5.8 µM [falling, partial curve, poor fit]

Compound: O=C(Nc1ccc(C(=O)N2CCCCC2)cc1)C1=CSCCO1
- AC50 [1]: 8.91 µM [rising, partial curve, poor fit]

Compound: O=C(C1CCN(Cc2ccc(F)cc2)CC1)N1CCN(C/C=C/c2ccccc2)CC1
- AC50 [1]: 22.4 µM [falling, single point]

Compound: Cc1cc2nccc(-c3cccnc3)n2n1
- AC50 [1]: 25.1 µM [falling, single point]

Compound: CCOC(=O)c1cnc2c(cnn2C)c1NCCC#N
- AC50 [1]: 9.2 µM [falling, partial curve, poor fit]

Compound: O=C(CN1C(=O)NC2(CCCc3ccccc32)C1=O)c1ccc(F)c(F)c1 (stereo unspecified)
- AC50 [1]: 29.1 µM [falling, single point]

Compound: Cc1csc2ncc(C(=O)NCCC(c3ccccc3)c3ccccc3)c(=O)n12
- AC50 [1]: 20 µM [rising, partial curve, poor fit]

Compound: CCC(C(=O)NCc1ccco1)N(C(=O)CNS(=O)(=O)c1ccccc1)c1ccc(OC)cc1 (stereo unspecified)
- AC50 [1]: 20.6 µM [rising, single point]

Compound: O=S(=O)(NC1CCCCC1)c1ccc(F)c2ccccc12
- AC50 [1]: 25.9 µM [falling, single point]

Compound: Cc1ccc(NC(=O)CSC2=C(C#N)C(c3ccco3)C3=C(CCCC3=O)N2)cc1 (stereo unspecified)
- AC50 [1]: 4.47 µM [falling, partial curve, poor fit]

Compound: O=C(c1ccc(N2CCOCC2)c([N+](=O)[O-])c1)N1CCN(S(=O)(=O)c2cccs2)CC1
- AC50 [1]: 35.5 µM [rising, partial curve, poor fit]

Compound: O=C(/C=C/c1ccccc1Cl)Nc1cccc(S(=O)(=O)NC2=NCCCCC2)c1
- AC50 [1]: 18.4 µM [falling, partial curve]

Compound: CCC(=O)Nc1nc(C)c(-c2csc(Nc3cccc(O)c3)n2)s1
- AC50 [1]: 14.1 µM [falling, partial curve]

Compound: COc1cccc(Nc2nc3ccccc3c(=O)[nH]2)c1
- AC50 [1]: 0.316 µM [rising, full curve, poor fit]

Compound: Fc1ccc(-c2noc3ncnc(Nc4ccc(F)cc4F)c23)cc1
- AC50 [1]: 14.1 µM [rising, single point]

Compound: Cc1ccc2c(Cl)c(C(=O)NCCCn3ccnc3)sc2c1
- AC50 [1]: 3.66 µM [falling, full curve, poor fit]

Compound: CC(=NCc1ccco1)C1=C(O)c2ccccc2C1=O
- AC50 [1]: 11.2 µM [falling, single point]

Compound: O=C(Nc1ccncc1)Nc1ccc(F)c(Cl)c1
- AC50 [1]: 3.16 µM [rising, partial curve, poor fit]

Compound: CCOC(=O)c1c(NC(=O)CN2CCCCC2)sc2c1CCN(C(=O)OCC)C2
- AC50 [1]: 35.5 µM [falling, single point]

Compound: Cc1cccc2sc(NC(=O)C3CCN(S(=O)(=O)c4cc([N+](=O)[O-])ccc4Cl)CC3)nc12
- AC50 [1]: 2.91 µM [falling, full curve]
- AC50 [2]: 2.91 µM [rising, partial curve, poor fit]

Compound: CC1CCc2c(sc(NC(=O)CSc3nnc(-c4ccccc4)o3)c2C#N)C1 (stereo unspecified)
- AC50 [1]: 7.31 µM [rising, partial curve]

Compound: Cc1ccc(C)c(NC(=O)CN(C)S(=O)(=O)c2cccc3cccnc23)c1
- AC50 [1]: 20 µM [rising, single point]

Compound: Cc1c(Cl)ccc2sc(NC(=O)c3ccco3)nc12
- AC50 [1]: 0.891 µM [falling, full curve, poor fit]

Compound: Cc1nc2nc(Cc3ccccc3)[nH]n2c(=O)c1Cl
- AC50 [1]: 8.2 µM [falling, partial curve]

Compound: COc1cccc2cc(-c3csc(NC(=O)CCC(=O)NCCCN4CCC(C)CC4)n3)c(=O)oc12
- AC50 [1]: 12.6 µM [falling, single point]

Compound: Cc1cc2nnc(SCC(=O)Nc3ccc(Cl)cc3)n2c(N)n1
- AC50 [1]: 0.891 µM [rising, full curve, poor fit]

Compound: Cc1ccc(NS(=O)(=O)c2cc(C(=O)OCC(=O)NCC3CCCO3)ccc2C)cc1 (stereo unspecified)
- AC50 [1]: 5.62 µM [rising, single point]

Compound: O=C(O)CCCN1C(=O)/C(=C/c2cn(-c3ccccc3)nc2-c2cccs2)SC1=S
- AC50 [1]: 1.12 µM [falling, full curve, poor fit]

Compound: O=C(CCn1ccc2ccccc21)NC1CCCc2ccccc21 (stereo unspecified)
- AC50 [1]: 4.11 µM [falling, full curve, poor fit]

Compound: O=C(O/N=C/C1=C(Cl)c2ccccc2CC1)c1ccc(F)cc1
- AC50 [1]: 18.4 µM [rising, single point]

Compound: COc1cccc(C(=O)/C=C/c2ccc(SC)cc2)c1
- AC50 [1]: 6.31 µM [falling, partial curve]

Compound: O=C1c2ccccc2S(=O)(=O)N1CC(O)Cn1c2ccccc2c2ccccc21 (stereo unspecified)
- AC50 [1]: 12.6 µM [falling, partial curve]

Compound: O=C(c1sccc1Cl)N1CCN(Cc2ccc3c(c2)OCO3)CC1
- AC50 [1]: 3.98 µM [falling, partial curve, poor fit]

Compound: Fc1ccc2nc(Nc3nc4c(s3)CCCC4)sc2c1
- AC50 [1]: 35.5 µM [falling, single point]

Compound: O=C(CSc1ncccn1)NCCc1ccccc1
- AC50 [1]: 31.6 µM [rising, single point]

Compound: CC1CCc2nn(CC(=O)NCCCN3CCCC3=O)cc2C1 (stereo unspecified)
- AC50 [1]: 1.46 µM [falling, full curve, poor fit]

Compound: CCc1sc(NC(=O)CN2CCC(C(N)=O)CC2)nc1-c1ccccc1
- AC50 [1]: 14.1 µM [falling, single point]

Compound: CCSc1ccccc1C(=O)Nc1nc2ccccc2c(=O)[nH]1
- AC50 [1]: 7.94 µM [falling, partial curve, poor fit]
- AC50 [2]: 0.891 µM [rising, full curve]

Compound: O=C(NC(=S)Nc1ccccc1Br)C1CCCC1
- AC50 [1]: 3.16 µM [falling, partial curve]

Compound: CCC(C)C(=O)Nc1nccs1 (stereo unspecified)
- AC50 [1]: 2.24 µM [falling, partial curve, poor fit]

Compound: COc1ccc(CCNC(=O)/C=C/c2ccc(C)cc2)cc1OC
- AC50 [1]: 6.31 µM [rising, partial curve, poor fit]

Compound: COc1cccc(C(=O)Nc2cc(C)on2)c1OC
- AC50 [1]: 7.08 µM [rising, partial curve, poor fit]

Compound: O=C(CSc1nccc(=O)[nH]1)c1cc2ccccc2o1
- AC50 [1]: 11.2 µM [falling, partial curve, poor fit]

Compound: O=C(NNc1ncnc2c1cnn2-c1cccc(Cl)c1)c1ccco1
- AC50 [1]: 12.6 µM [falling, partial curve]

Compound: C#CCOCCOCCOCCNc1nc(N2CCN(C(=O)CCCCCCCCCCNC(=O)[C@H]([C@@H](C)CC)n3cc(CCCCN=C(N)N)nn3)CC2)nc(N2CCN(C(=O)CCCCCCCCCCNC(=O)[C@@H]([C@H](C)O)n3cc(C)nn3)CC2)n1
- AC50 [1]: 14.6 µM [rising, partial curve]

Compound: CC[C@](C)(O)c1cc2ccccc2c(=O)o1
- AC50 [1]: 2.31 µM [falling, single point]

Compound: CCCSc1nc(N2CCOCC2)c2c(c1C#N)CC(C)(C)SC2
- AC50 [1]: 0.082 µM [falling, partial curve, poor fit]

Compound: CC(=O)Nc1ccc(N/C=C/C(=O)c2ccco2)cc1
- AC50 [1]: 14.6 µM [falling, partial curve, poor fit]

Compound: CC(C)c1ccc(C(=O)NNC(=O)c2n[nH]c(=O)c3ccccc23)cc1
- AC50 [1]: 29.1 µM [rising, single point]

Compound: COc1ccc(OC)c(NC(=O)Cc2csc(NC(=O)Nc3ccccc3OC)n2)c1
- AC50 [1]: 16.4 µM [falling, single point]

Compound: Cc1nc(CSc2ccc(Br)cc2)cs1
- AC50 [1]: 2.82 µM [rising, full curve]

Compound: COc1ccccc1-n1nnnc1SCC(=O)Nc1ccccn1
- AC50 [1]: 4.11 µM [falling, full curve]

Compound: c1ccc(-c2cc(-c3ccccc3)on2)cc1
- AC50 [1]: 0.891 µM [rising, partial curve, poor fit]

Compound: COc1ccc(OC)c(-c2[nH]nc3c2C(c2ccco2)C(C#N)=C(N)O3)c1 (stereo unspecified)
- AC50 [1]: 18.4 µM [falling, single point]

Compound: COCCn1c(CN2CCN(c3cccc(Cl)c3)CC2)nc2c1c(=O)n(C)c(=O)n2C
- AC50 [1]: 22.4 µM [falling, single point]

Compound: Cc1cc(C(C)(C)C)oc1C(=O)N(CC(=O)NC1CCCC1)c1cccc(C(F)(F)F)c1
- AC50 [1]: 14.6 µM [falling, partial curve, poor fit]

Compound: COc1ccc(N(CC(=O)NC2CCCC2)C(=O)c2ccc(N3CCCCC3)nc2)cc1
- AC50 [1]: 6.31 µM [rising, partial curve, poor fit]

Compound: CN(c1ccccc1)S(=O)(=O)c1cccc(C(=O)NCc2ccccc2CN2CCCC2)c1
- AC50 [1]: 20.6 µM [falling, single point]

From PubChem BioAssay AID493014 (National Center for Advancing Translational Sciences (NCATS), 2011)
